Measurements: article PMC7708074
Numbering of substitutions follows the chain as printed. Numbers in names are those of the source. Results are given in words; binding and its absence hold for the method and conditions named. In cells and extracts the contact can be indirect. Some results given as binding are weak or reduced against the parent protein; the word gives no strength. Sequences can lack the tags named with a protein.

B1: Rbs1-Myc (endogenous Myc-tagged Rbs1 expressed from the chromosomal locus) (protein, UniProt Q05672 1-457)
chain: MTALDSRNWGLTPAMETGLFQKPQDRIFIIELENSIVSFINSNTESFQLRPMNSYYRLLSHQIAEYHNLNHVLARTQDSCVILFKGENFQKIEGKPLLQELQLNKKPEECASSSESIEKSNNNRIFRILKRKEVGNECDYKIDGNTRTPNSNLTANSNKDQKIEIDDKSSTDLEQERIEKERLYEQRKQEIFDKLNKSEDDVKSTNSSGSSDSDNEWSDWLNGDDSNTQTSNGSVSSSSPFNSSVTTIQVNKPQQQFYDSRRGRGGRRRGTNNYKDAYRGQSRRNKENGGYQSGYSSPYLVYPPPQMGGNSLPTYPLMYNPAGPAPGPAPSPMVMGNNTVFMNPYMYNMNPQGSCSFGTPIPMYPPYQYQYQYQYNTQYHSGPYSNTPSYNSNNYTRSSANKYHHFQGKNSYSGAIPKRSDDSNSNKNEGIRRASVEGSPSSRDTDSVEMKFDKLNI
B2: Rbs1-Myc overexpressed from the multicopy plasmid [RBS1-Myc] (protein, UniProt Q05672 1-457)
chain: B1 chain
B3: Rbs1 R3H-Myc (Arg57Ala, His61Ala) overexpressed from the multicopy plasmid [RBS1 R3H-Myc] (protein, UniProt Q05672 1-457)
chain: B1 chain with R57A, H61A

biological target: T1, Upf1-TAP (TAP-tagged Upf1 helicase) (S. cerevisiae) (UniProt P30771); assay: co-IP; Upf1-TAP captured from 1 mg of yeast total cell extract on IgG-coated magnetic beads (Dynabeads PanMouse IgG), 1 h at 4°C; 20 mM HEPES pH 7.4, 145 mM KCl; extract and beads with or without RNase A and RNase T1; Rbs1-Myc detected by anti-Myc western blot
T1 sequence: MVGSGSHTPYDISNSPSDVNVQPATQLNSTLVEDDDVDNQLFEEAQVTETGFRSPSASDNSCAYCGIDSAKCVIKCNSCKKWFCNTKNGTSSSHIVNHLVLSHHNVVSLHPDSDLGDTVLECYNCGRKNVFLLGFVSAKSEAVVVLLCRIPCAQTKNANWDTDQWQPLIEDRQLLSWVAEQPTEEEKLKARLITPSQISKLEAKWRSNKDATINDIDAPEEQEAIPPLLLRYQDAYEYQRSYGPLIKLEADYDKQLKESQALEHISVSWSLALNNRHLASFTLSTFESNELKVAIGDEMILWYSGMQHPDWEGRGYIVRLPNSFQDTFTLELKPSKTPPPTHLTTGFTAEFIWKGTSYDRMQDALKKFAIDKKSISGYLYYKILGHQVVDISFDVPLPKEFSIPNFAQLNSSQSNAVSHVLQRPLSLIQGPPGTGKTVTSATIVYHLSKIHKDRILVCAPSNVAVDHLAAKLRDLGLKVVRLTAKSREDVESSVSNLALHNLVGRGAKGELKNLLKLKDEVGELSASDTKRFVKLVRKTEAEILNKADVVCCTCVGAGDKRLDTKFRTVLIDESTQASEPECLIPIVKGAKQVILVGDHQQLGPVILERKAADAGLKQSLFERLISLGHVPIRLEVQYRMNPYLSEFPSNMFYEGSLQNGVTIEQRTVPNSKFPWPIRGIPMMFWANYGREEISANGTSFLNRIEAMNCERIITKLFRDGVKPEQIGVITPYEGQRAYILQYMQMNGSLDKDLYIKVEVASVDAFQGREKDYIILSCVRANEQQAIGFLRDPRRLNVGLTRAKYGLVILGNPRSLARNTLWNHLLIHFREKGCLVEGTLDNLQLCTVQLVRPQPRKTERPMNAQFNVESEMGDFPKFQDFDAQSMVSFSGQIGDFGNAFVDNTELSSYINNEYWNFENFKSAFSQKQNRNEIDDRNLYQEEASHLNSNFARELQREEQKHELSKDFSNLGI

binding, binds:
B1
B2
B3
